{"source": "patent US5116816A", "about": "“Cyclosporin peptolides having an α-hydroxycarboxylic acid at position 8” (Sandoz Ltd., priority 1987, dated 1992)", "key": {"[1]": {"tested_on": "graft-versus-host-reaction", "experiment": "Localised graft-versus-host reaction", "type": "in vivo", "conditions": "rat, oral"}, "UV erythema": {"tested_on": "UV erythema", "experiment": "UV Erythema test", "type": "in vivo, guinea pigs", "conditions": "topical solution, erythema estimated four hours after application", "description": "The test is carried out on female albino guinea pigs, approx. 150 g wt. The animals are shaved on both flanks using a Braun micro razor, without causing skin irritation. For each test substance five animals are subjected to a defined intensity of UV radiation for 10 seconds on each of four areas of skin (10 mm diameter). Immediately afterwards 50 microliters of a solution of the test substance in ethanol/propylene glycol/dimethylacetamide (19:19:2 v/v) is applied to two of the irradiated areas on each animal and 50 microliters of the solvent mixture to the other two as controls. Four hours after application, the degree of erythema is estimated visually."}}, "note": "Part of at least one peptide drawing is inferred or uncertain, most often the ends. Residues, ends and D or L forms follow the SMILES beside them.", "data": [{"compound": "C/C=C/C[C@@H](C)[C@@H](O)[C@H]1C(=O)N[C@@H]([C@@H](C)O)C(=O)N(C)CC(=O)N(C)[C@@H](CC(C)C)C(=O)N[C@@H](CC(C)C)C(=O)N(C)[C@@H](CC(C)C)C(=O)N[C@@H](C)C(=O)O[C@H](C(C)C)C(=O)N(C)[C@@H](CC(C)C)C(=O)N[C@@H](CC(C)C)C(=O)N(C)[C@@H](C(C)C)C(=O)N1C", "note": "[Example 2, (Thr)^2 (Leu)^5 (D-Hiv)^8 (Leu)^10 -Ciclosporin] (HELM PEPTIDE1{A.[CC(C)[C@@H](O[*:1])C(=O)[*:2]].[meL].L.[meV].[C/C=C/C[C@@H](C)[C@@H](O)[C@@H](C(=O)[*:2])N(C)[*:1]].T.[Sar].[meL].L.[meL]}$PEPTIDE1,PEPTIDE1,1:R1-11:R2$$$V2.0)", "values": [{"measurement": "ED50, localized graft versus host reaction", "setting": "[1]", "value": "approx. 25 mg/kg"}, {"measurement": "effective concentration in UV-erythema test", "setting": "UV erythema", "value": 5, "unit": "%"}]}]}
